Results reported in patent US9340579B2 (NIPPI, INCORPORATED, priority 2011, dated 2016).

Experiment: general procedure: Fmoc solid-phase peptide synthesis; Fmoc-Pro-Wang resin; DIC/HOBt
Details: whole synthesis
[1] = scale of the general procedure 0.5 g resin

Substance: Gly-Pro-Ala-Gly-Pro
- crude mass: 38.5 mg
- isolated mass: 30.7 mg
- crude yield [1]: 29.8%
- isolated yield [1]: 23.8%
